## Screening data

Data taken from PubChem BioAssay AID1159506, deposited by NCATS (2015).

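Luminescence from an EWS-FLI1 target-promoter (NR0B1) reporter, set against a CMV-promoter reporter, two days after silencing single genes in TC32 Ewing sarcoma cells. Each siRNA was applied at 20 nM. A z-score of the log NR0B1-over-CMV signal, less the median of siRNAs with the same seed; more negative means a stronger specific loss of the NR0B1 reporter.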

This is part of the screen; most of the strongest results are not listed here. Sequences are the guide (antisense) strand, without overhang.

| siRNA | target gene | seed-corrected z-score |
|---|---|---|
| `ACUUCUAUAAAAGGUGUGC` | SNRPN | -0.3595 |
| `UAAGCGUGUCCAAUUUUGC` | BMP8A | -0.5975 |
| `UAAGGAUCCCAUGAGGCUU` | NPTXR | 0.3711 |
| `UCCCUUUCUCAUGUAGUGC` | PIANP | -0.01211 |
| `AAAGAUAUAAUACGUCUCG` | COL4A3BP | -1.014 |
| `UACCAGAUAAAAUGGUUUC` | BCS1L | 0.2834 |
| `UAUACGUAUAAUGUGCUUG` | SLC9A6 | 0.3092 |
| `AUCCGGUUGAAUUCCUUCC` | ZNF366 | -1.745 |
| `UUCCGUGUUAGUUGCCUGC` | TPPP | -0.1135 |
| `UCACGGAUUUUGUCAUUGG` | APOB | -0.8352 |
| `UUUGAAUUGAUGUCUGGAC` | CCDC84 | 0.006598 |
| `AAAGGAUGAGGUCAAGUCG` | SMG5 | 1.065 |
| `UGCUGAAUAGGUGUGCUCU` | BRD9 | 0.8036 |
| `UUUCAAUCUUAUUACUUCC` | RXFP1 | -1.27 |
| `UACUUUUUAUCGCCUGGUC` | TXNL4B | -0.5997 |
| `UUUUACUACCUCAAAAGGG` | SLC25A21 | 1.682 |
| `UUCAUGUUCACGCGGCAGC` | CTU2 | 0.5436 |
| `UCUUCUCUAAGGCAAAUGC` | ZNF592 | 0.1181 |
| `UUUAGUGUUAUCAAUGAGG` | GBP2 | 0.0257 |
| `UUAAGAAACUCCACCUUGU` | KCNC3 | 0.2024 |
| `UUCCAGACUACAGUUCUGC` | UQCRC1 | -0.2916 |
| `UGAAGUUUUCUAUAGAGGG` | SMCO3 | 0.2689 |
| `AUUAUCACCAGCAAUAUGG` | THUMPD3 | 0.3567 |
| `UACGUAAAAACCGAGUAUC` | CEP290 | 0.4038 |
| `UGCAUUGUAAUCAGGGUCC` | SPINK13 | -1.289 |
| `UCAGUUUCAAGGUAAAUCG` | KRTAP1-3 | -0.9247 |
| `UGAAUUUUAAUUCCUGUCG` | RPS18P5 | 2.155 |
| `UAUUGUUCUGGAUACUGCC` | PCNX2 | 0.9329 |
| `UUUCGGUAUAAUCUGAAAC` | DPM1 | -0.04609 |
| `UUGGUGUACCCAAUGCUCU` | COL6A2 | -0.4646 |
| `UAUUGAUCCCGUUCUCCCG` | DHPS | -0.5774 |
| `UUGCUGGGCACAUCCAUCU` | PCGF2 | -0.03605 |
| `UACUGAACCUGUGCGAUAC` | PKP4 | 0.4066 |
| `UUGGGUGACAGACUUUGUC` | ZSCAN22 | -0.4097 |
| `AUUGGUAUCAGAAAAAUUA` | RPS18P5 | 1.565 |
| `UGCAAUACAGGAGAAUAUC` | FAM187B | 0.5926 |
| `AUCGGUUCCCAAGACAUGG` | PREP | -0.1007 |
| `ACCUUUCACAACGAUGUCC` | PLEKHH3 | 0.08436 |
| `AAUAGGAAUUGCAAAGAGC` | FMO3 | -0.7469 |
| `UCAAUGACGAGGUCGAUGG` | MEIS2 | -0.2212 |
| `UUUUAGUCUUCUUACACGC` | WDR76 | 0.07222 |
| `AAUGUGAUCAUGACCGAGU` | TSPAN18 | 1.334 |
| `UUCACUAUAGGGAAGCUCC` | HDAC3 | 0.7806 |
| `UUCUUAAUCUCAGACACCU` | FOXRED1 | 0.1657 |
| `UGUUAGCUCAGAAGCAUCC` | EXPH5 | 0.8969 |
| `UUCUUUUUAUGCGCAGUUC` | CASP5 | -0.4883 |
| `ACUGUAGUCAUAAUAUUCC` | UGT2B15 | 0.1604 |
| `UCUGAGUCCUCGUAUAGGU` | RIPPLY1 | 1.176 |

3 of the entries, repeated:

* AUUGGUAUCAGAAAAAUUA against RPS18P5 : seed-corrected z-score 1.565
* UUGGUGUACCCAAUGCUCU against COL6A2 : seed-corrected z-score -0.4646
* UCCCUUUCUCAUGUAGUGC against PIANP : seed-corrected z-score -0.01211